Data published in PMC4136804.
These are yes or no findings as the source states them, for the method shown. Tags and fused reporters may be left off the sequences shown.

Target: recombinant MYM SIMs from ZNF261 (amino acids 236-490), untagged (human) (UniProt Q14202)
Test: AUC; sedimentation equilibrium of the ZNF261 fragment alone at 10, 20 and 40 uM; 20 mM HEPES pH 7.6, 350 mM NaCl, 5 mM DTT, 10 uM ZnCl2, 10 C; 15,000, 20,000 and 25,000 rpm; single species model; both purified

B1: recombinant MYM SIMs from ZNF261 (amino acids 236-490), untagged (domain or fragment, UniProt Q14202 236-490)
chain: ERKRSERVRRAEPPKPEVVDSTESIPVSDEDSDAMVDDPNDEDFVPFRPRRSPRMSLRSSVSQRAGRSAVGTKMTCAHCRTPLQKGQTAYQRKGLPQLFCSSSCLTTFSKKPSGKKTCTFCKKEIWNTKDSVVAQTGSGGSFHEFCTSVCLSLYEAQQQRPIPQSGDPADATRCSICQKTGEVLHEVSNGSVVHRLCSDSCFSKFRANKGLKTNCCDQCGAYIYTKTGSPGPELLFHEGQQKRFCNTTCLGAYKK
In the case of B1, the binding is reported as “no binding (tested: 10, 20, and 40 µM)”.
